PMC7764601 (Molecules, 2020)

Tested on: mice
Assay: Spontaneous locomotor activity in mice (photoresistor actometers)
Assay type: in vivo
Procedure: The experiments were carried out on male albino Swiss mice (body weight 18–26 g). All of the animals were housed at constant humidity (60%) and temperature (25 °C) and kept on a 12 h light/dark cycle. Animals were fed a standard pellet diet with free access to tap water. All procedures were conducted according to Animal Care and Use Committee guidelines, and approved by the Ethical Committee of Jagiellonian University, Kraków.
Control and experimental groups consisted of 6–8 animals each. The investigated compounds were administered intraperitoneally as a suspension in 0.5% methylcellulose in a constant volume of 10 mL/kg.
Spontaneous locomotor activity in mice was measured in circular photoresistoractometers (32 cm in diameter). […] Thirty minutes after the injection of the investigated compounds, mice were placed in the actometers for 30 min. Each crossing of the light beam was recorded automatically. The amount of impulses was noted after 30 min.

Row | SMILES | ED50 locomotor activity test relative to ED50 writhing test [fold]
1 | COc1nc(C)cc2c1C(=O)N(CCN1CCN(c3ccccc3)CC1)C2=O [Compound 9] | 5
2 | COc1ccccc1N1CCN(CCN2C(=O)c3cc(C)nc(OC)c3C2=O)CC1 [Compound 11] | 6
